Data from the supplement of paper PMC10849652.
Some of the results follow.

Protein sequences, listed by entry. Tags and fused reporters are not part of them. Lines headed by an entry give the natural chain unless they say otherwise; changes in a name come on top.
UniProt Q96EU6: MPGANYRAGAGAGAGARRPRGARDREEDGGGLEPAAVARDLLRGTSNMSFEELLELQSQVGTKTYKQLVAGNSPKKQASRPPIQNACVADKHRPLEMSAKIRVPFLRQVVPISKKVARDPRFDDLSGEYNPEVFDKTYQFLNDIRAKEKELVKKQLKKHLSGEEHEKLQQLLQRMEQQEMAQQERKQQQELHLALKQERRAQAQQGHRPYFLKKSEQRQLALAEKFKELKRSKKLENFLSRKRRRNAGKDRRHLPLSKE
UniProt O14521: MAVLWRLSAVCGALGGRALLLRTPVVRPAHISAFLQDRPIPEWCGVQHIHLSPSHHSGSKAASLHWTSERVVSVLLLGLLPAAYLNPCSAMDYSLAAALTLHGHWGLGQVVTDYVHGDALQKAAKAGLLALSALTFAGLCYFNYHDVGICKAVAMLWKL
UniProt Q8WXD2: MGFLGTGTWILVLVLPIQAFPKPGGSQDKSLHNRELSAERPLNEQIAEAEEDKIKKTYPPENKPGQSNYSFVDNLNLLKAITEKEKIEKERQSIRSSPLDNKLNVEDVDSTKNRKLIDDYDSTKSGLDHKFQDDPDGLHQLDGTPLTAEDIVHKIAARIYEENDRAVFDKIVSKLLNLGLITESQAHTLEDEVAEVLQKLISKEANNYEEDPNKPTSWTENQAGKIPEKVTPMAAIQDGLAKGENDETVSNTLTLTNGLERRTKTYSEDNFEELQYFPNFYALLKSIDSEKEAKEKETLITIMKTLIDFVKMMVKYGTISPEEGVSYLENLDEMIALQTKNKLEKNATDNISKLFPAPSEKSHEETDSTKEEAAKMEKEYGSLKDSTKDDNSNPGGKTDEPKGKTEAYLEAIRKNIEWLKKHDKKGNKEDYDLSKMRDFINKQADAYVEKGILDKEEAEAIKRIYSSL
UniProt Q8IZE3: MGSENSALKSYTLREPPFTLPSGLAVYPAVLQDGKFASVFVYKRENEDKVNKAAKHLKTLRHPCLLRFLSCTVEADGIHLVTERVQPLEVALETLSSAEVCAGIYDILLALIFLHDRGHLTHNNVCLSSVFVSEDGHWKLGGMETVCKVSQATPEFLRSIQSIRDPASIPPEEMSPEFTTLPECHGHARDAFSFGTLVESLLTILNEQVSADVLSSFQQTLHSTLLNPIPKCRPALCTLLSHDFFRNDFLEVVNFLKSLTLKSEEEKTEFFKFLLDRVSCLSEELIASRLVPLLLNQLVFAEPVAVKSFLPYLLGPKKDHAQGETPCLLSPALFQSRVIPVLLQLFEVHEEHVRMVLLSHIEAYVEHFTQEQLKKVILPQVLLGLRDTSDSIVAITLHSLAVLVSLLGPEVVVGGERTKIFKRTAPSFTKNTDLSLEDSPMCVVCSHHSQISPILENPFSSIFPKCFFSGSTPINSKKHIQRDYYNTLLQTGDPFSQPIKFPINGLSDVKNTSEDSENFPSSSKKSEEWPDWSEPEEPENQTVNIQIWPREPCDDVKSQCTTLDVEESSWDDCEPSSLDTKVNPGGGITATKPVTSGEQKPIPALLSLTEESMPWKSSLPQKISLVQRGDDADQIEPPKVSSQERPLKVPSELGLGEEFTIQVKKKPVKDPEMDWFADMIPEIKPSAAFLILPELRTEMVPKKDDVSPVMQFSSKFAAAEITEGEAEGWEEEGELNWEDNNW
UniProt O15127: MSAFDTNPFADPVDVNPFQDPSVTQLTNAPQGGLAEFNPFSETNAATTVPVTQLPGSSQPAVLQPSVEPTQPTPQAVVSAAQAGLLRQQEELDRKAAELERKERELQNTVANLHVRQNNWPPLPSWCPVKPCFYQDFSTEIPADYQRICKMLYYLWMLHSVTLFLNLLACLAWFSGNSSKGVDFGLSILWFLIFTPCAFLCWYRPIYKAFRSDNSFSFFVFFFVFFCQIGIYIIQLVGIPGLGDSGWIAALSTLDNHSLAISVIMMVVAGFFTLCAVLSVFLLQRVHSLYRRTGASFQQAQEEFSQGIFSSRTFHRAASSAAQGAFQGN
UniProt Q9BY42: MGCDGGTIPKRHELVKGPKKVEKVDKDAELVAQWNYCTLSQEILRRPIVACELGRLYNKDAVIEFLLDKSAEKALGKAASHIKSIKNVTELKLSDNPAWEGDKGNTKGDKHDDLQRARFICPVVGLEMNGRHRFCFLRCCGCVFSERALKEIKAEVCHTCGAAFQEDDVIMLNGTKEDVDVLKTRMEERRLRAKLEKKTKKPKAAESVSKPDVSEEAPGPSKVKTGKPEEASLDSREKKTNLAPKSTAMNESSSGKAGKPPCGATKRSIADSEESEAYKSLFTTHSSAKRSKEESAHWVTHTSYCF
UniProt Q7L4I2: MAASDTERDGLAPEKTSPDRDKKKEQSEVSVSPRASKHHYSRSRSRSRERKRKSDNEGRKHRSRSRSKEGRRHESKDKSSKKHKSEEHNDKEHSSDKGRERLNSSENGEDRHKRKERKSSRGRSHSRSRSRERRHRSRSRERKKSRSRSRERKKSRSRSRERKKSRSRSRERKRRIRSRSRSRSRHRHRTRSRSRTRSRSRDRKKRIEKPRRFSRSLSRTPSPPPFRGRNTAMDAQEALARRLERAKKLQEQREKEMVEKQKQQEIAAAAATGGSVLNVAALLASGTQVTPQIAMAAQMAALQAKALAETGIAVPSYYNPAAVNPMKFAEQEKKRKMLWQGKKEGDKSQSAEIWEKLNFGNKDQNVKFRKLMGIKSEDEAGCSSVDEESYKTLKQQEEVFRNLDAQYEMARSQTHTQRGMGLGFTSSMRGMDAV
UniProt O95969: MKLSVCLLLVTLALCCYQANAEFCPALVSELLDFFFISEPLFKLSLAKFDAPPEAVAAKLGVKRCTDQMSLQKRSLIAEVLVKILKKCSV
UniProt Q96IW7: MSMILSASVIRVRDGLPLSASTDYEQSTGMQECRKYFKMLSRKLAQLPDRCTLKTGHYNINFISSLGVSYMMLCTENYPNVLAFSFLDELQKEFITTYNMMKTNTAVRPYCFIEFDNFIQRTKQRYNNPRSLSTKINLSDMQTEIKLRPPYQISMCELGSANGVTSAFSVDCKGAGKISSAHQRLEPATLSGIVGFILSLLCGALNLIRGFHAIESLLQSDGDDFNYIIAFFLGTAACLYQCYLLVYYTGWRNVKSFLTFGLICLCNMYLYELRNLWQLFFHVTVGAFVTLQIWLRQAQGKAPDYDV
UniProt P26447: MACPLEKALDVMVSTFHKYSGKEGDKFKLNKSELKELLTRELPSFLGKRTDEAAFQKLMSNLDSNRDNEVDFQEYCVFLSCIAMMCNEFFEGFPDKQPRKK
UniProt Q9NTJ5: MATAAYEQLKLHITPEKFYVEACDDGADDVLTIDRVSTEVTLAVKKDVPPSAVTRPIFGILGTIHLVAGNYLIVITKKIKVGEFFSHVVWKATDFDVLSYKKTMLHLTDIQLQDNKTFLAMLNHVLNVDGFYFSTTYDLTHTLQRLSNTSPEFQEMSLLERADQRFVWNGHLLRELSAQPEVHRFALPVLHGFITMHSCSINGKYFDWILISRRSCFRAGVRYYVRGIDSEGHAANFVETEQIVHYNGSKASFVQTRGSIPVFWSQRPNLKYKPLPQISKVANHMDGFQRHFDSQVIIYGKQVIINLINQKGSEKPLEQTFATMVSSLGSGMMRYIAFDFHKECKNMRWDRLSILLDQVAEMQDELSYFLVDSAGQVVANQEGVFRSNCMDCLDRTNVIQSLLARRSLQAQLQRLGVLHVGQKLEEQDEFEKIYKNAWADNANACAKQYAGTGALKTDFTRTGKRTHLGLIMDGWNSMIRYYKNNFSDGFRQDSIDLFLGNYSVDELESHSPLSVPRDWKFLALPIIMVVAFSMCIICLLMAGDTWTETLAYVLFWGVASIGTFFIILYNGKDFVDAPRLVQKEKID
UniProt Q96DX4: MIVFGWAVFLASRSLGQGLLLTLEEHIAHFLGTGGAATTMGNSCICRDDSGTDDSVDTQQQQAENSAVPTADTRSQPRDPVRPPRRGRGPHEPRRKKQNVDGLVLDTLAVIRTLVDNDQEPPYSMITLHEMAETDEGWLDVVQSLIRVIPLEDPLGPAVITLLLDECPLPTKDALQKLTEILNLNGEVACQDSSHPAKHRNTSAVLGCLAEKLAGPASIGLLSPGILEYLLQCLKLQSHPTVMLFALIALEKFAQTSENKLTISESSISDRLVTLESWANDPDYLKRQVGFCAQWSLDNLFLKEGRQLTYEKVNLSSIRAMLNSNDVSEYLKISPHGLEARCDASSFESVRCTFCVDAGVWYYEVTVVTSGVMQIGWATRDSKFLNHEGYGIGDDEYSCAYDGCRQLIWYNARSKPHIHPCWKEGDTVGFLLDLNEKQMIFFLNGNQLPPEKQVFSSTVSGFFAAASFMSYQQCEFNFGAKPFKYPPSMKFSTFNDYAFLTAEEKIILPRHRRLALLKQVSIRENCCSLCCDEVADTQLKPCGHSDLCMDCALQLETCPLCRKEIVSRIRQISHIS
UniProt Q9HCY8: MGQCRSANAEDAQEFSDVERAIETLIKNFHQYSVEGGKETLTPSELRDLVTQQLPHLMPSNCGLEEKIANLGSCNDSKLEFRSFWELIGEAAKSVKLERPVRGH
UniProt O75845: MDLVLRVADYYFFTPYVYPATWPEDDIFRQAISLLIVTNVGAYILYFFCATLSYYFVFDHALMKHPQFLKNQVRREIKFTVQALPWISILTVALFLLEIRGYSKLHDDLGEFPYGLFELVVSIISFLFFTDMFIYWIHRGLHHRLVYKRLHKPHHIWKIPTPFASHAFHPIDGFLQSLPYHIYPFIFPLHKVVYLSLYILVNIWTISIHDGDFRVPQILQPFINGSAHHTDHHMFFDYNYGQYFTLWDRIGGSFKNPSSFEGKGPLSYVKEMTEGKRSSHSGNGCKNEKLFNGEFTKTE
UniProt Q9NX18: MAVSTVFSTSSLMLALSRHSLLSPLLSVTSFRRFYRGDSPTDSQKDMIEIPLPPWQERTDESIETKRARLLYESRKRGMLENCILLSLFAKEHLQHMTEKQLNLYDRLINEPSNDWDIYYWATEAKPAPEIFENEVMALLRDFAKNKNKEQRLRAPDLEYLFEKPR
UniProt Q7L099: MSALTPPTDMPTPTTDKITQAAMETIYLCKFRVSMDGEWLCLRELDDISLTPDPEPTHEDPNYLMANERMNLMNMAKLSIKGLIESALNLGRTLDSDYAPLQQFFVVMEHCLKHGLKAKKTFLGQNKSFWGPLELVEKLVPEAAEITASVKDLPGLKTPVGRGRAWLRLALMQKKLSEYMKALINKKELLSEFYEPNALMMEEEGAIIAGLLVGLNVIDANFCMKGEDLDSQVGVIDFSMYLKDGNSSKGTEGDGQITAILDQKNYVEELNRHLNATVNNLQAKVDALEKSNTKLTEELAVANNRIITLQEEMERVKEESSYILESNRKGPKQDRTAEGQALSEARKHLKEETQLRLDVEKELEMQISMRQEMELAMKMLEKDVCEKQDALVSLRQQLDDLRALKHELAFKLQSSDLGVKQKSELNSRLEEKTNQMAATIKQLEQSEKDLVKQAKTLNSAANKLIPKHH
UniProt Q9NQC3: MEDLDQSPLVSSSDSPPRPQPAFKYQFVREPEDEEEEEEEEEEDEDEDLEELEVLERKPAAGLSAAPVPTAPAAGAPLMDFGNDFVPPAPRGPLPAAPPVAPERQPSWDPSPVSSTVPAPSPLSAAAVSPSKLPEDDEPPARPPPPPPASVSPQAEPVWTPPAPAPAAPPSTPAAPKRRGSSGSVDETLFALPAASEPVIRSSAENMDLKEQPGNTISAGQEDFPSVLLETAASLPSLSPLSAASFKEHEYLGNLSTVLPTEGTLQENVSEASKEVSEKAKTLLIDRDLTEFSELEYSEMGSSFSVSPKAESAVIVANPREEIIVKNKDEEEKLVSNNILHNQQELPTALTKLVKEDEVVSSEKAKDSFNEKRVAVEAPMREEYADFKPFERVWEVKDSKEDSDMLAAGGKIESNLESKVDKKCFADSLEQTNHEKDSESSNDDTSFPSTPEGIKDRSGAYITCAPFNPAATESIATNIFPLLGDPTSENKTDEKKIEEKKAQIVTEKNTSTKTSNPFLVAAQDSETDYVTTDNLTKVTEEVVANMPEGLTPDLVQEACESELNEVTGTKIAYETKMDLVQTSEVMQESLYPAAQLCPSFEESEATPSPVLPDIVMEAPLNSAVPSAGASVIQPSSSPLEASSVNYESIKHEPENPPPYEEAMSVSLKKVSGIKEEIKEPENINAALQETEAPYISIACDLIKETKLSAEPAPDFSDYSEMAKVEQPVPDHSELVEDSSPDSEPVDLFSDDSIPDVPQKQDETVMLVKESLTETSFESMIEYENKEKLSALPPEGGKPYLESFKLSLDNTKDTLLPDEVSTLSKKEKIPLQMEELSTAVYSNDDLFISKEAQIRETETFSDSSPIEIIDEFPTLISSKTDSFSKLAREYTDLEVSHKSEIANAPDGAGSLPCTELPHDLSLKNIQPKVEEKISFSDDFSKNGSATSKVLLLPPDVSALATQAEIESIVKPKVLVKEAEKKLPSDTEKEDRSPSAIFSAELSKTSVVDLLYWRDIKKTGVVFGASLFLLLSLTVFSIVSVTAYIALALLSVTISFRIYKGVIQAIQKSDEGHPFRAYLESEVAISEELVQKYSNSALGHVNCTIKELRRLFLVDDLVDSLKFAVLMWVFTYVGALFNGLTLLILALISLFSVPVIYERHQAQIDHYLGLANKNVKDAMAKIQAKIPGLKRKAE

What follows are targets tested with C1=CC=C(C=C1)C2=NC(=C(N2)C3=CC=NC=C3)C4=CC(=C(C=C4)Cl)O (assay: log2 fold change, soluble protein after heating vs DMSO (PISA); higher = thermal stabilisation; K562 cells, 10 uM, 30 min; active = over 0.2 and 3.5 SD of the protein, either way, in both replicates (recomputed)).
Method in brief: (§1)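 K562 cells at 2×10^6 cells/mL were treated with 10 μM compound for 30 min. Aliquots were heated for 3 min across 48°C-58°C, pooled, and extracted in PBS with 0.5% NP-40 at 4°C; soluble protein was the supernatant after 21,000xg for 90 min. Soluble protein was quantified by TMTpro 16plex LC-MS/MS with channel sums equalised, and reported as log2 fold change in thermal stability against DMSO controls, with values from duplicates.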

Target	log2 fold change
RRP36 (UniProt Q96EU6)	inactive: 0.019
SCAMP2 (UniProt H3BUB6)	inactive: -0.281
SDHD (UniProt O14521)	inactive: 0.103
SCG3 (UniProt Q8WXD2)	inactive: 0.103
SCYL3 isoform 2 (UniProt Q8IZE3)	inactive: 0.058
SCAMP2 (UniProt O15127)	inactive: 0.055
SDHB, A0A087WXX8	inactive: -0.099
RTF2 (UniProt Q9BY42)	inactive: -0.035
RSRC2 (UniProt Q7L4I2)	inactive: 0.019
SCAI isoform 2 (UniProt Q8N9R8)	inactive: -0.07
SCGB1D2 (UniProt O95969)	inactive: 0.639
RUNX1 isoform 8 (UniProt Q01196)	inactive: 0.131
SEC22A (UniProt Q96IW7)	inactive: 0.002
S100A4 (UniProt P26447)	inactive: 0.015
SACM1L (UniProt Q9NTJ5)	inactive: 0.077
RSF1 (UniProt Q96T23)	inactive: 0.089
SAMD4B (UniProt Q5PRF9)	inactive: -0.135
SDHB, A0A087WWT1	inactive: -0.251
RWDD2B (UniProt P57060)	inactive: -0.002
RSPRY1 (UniProt Q96DX4)	inactive: -0.006
S100A14 (UniProt Q9HCY8)	inactive: -0.136
SC5D (UniProt O75845)	inactive: 0.026
RSL24D1 (UniProt Q9UHA3)	inactive: -0.174
SDHAF2 (UniProt Q9NX18)	inactive: -0.035
RUFY3 isoform 3 (UniProt Q7L099)	inactive: 0.011
RTN4 isoform 5 (UniProt Q9NQC3)	inactive: -0.01

The targets below were run with C1=CC=C2C(=C1)C3=NNC4=CC=CC(=C43)C2=O in the same assay as above.
Method in brief: as §1

Target	log2 fold change
RRP36 (UniProt Q96EU6)	inactive: 0.012
SCAMP2 (UniProt H3BUB6)	inactive: -0.143
SDHD (UniProt O14521)	inactive: 0.105
SCG3 (UniProt Q8WXD2)	inactive: -0.094
SCYL3 isoform 2 (UniProt Q8IZE3)	inactive: 0.014
SCAMP2 (UniProt O15127)	inactive: 0.057
SDHB, A0A087WXX8	inactive: -0.098
SDR39U1 (UniProt Q9NRG7)	inactive: 0.143
RTF2 (UniProt Q9BY42)	inactive: -0.02
SDCCAG8 (UniProt Q86SQ7)	inactive: 0.039
SDHAF4 (UniProt Q5VUM1)	inactive: -0.117
RSRC2 (UniProt Q7L4I2)	inactive: -0.032
SCAI isoform 2 (UniProt Q8N9R8)	inactive: -0.056
SCGB1D2 (UniProt O95969)	inactive: -0.707
RUNX1 isoform 8 (UniProt Q01196)	inactive: -0.033
SEC22A (UniProt Q96IW7)	inactive: -0.068

Target	log2 fold change
S100A4 (UniProt P26447)	inactive: -0.164
SACM1L (UniProt Q9NTJ5)	inactive: 0.009
RSF1 (UniProt Q96T23)	inactive: -0.057
SAP30 (UniProt O75446)	inactive: -0.13
SDHB, A0A087WWT1	inactive: -0.03
S100A2 (UniProt P29034)	inactive: 0.084
RWDD2B (UniProt P57060)	inactive: -0.128
SCAF4 (UniProt O95104)	inactive: -0.007
RSPRY1 (UniProt Q96DX4)	inactive: -0.026
S100A14 (UniProt Q9HCY8)	inactive: -0.191
SC5D (UniProt O75845)	inactive: -0.012
RSL24D1 (UniProt Q9UHA3)	inactive: -0.055
SDHAF2 (UniProt Q9NX18)	inactive: 0.114
RUFY3 isoform 3 (UniProt Q7L099)	inactive: 0.065
RTN4 isoform 5 (UniProt Q9NQC3)	inactive: -0.056

These targets were tested with C1CCN(C1)C(=O)NC2=CC=CC(=C2)NC3=NC=C(C(=N3)NCCC4=CN=CN4)Br in the same assay as above.
Method in brief: as §1

Target	log2 fold change
RRP36 (UniProt Q96EU6)	inactive: 0.045
SCAMP2 (UniProt H3BUB6)	inactive: 0.218
SDHD (UniProt O14521)	inactive: -0.013
SCG3 (UniProt Q8WXD2)	inactive: -0.05
SCYL3 isoform 2 (UniProt Q8IZE3)	inactive: 0.093
SCAMP2 (UniProt O15127)	inactive: -0.116
SDR39U1 (UniProt Q9NRG7)	inactive: 0.643
RTF2 (UniProt Q9BY42)	inactive: -0.074
SDCCAG8 (UniProt Q86SQ7)	inactive: 0.061
SDHAF4 (UniProt Q5VUM1)	inactive: 0.054
RSRC2 (UniProt Q7L4I2)	inactive: 0
SCGB1D2 (UniProt O95969)	inactive: -0.487
SEC22A (UniProt Q96IW7)	inactive: 0.029
SACM1L (UniProt Q9NTJ5)	inactive: 0.001
RSF1 (UniProt Q96T23)	inactive: 0.01
SAMD4B (UniProt Q5PRF9)	inactive: 0.037
S100A2 (UniProt P29034)	inactive: -0.014
SCAF4 (UniProt O95104)	inactive: -0.033
RSPRY1 (UniProt Q96DX4)	inactive: -0.014
S100A14 (UniProt Q9HCY8)	inactive: -0.056
SC5D (UniProt O75845)	inactive: -0.071
RSL24D1 (UniProt Q9UHA3)	inactive: 0.049
SDHAF2 (UniProt Q9NX18)	inactive: 0.068
RUFY3 isoform 3 (UniProt Q7L099)	inactive: -0.075
RTN4 isoform 5 (UniProt Q9NQC3)	inactive: 0.005
